No constants are given. Whether binding was seen depends on the method and setting. Binding seen in cells or lysates may run through a third protein. A yes stands for co-enrichment or nearness to the bait. Other partners may have been found. Sequences can lack the tags named with a protein.
T1: Heme oxygenase 1 (recombinant FLAGHO-1) (human) (UniProt P09601)
T1 sequence: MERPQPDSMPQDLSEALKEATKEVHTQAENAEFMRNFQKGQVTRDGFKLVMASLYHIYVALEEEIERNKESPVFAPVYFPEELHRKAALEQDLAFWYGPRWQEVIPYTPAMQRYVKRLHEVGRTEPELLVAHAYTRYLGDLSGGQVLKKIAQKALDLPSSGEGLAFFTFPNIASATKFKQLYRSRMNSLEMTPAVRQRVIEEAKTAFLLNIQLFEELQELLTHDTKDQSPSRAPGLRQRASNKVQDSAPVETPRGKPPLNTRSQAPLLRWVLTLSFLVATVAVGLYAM

Sequences of proteins named here, by UniProt entry; tags and fusion partners are left off. Residues count along the entry.
UniProt P11387: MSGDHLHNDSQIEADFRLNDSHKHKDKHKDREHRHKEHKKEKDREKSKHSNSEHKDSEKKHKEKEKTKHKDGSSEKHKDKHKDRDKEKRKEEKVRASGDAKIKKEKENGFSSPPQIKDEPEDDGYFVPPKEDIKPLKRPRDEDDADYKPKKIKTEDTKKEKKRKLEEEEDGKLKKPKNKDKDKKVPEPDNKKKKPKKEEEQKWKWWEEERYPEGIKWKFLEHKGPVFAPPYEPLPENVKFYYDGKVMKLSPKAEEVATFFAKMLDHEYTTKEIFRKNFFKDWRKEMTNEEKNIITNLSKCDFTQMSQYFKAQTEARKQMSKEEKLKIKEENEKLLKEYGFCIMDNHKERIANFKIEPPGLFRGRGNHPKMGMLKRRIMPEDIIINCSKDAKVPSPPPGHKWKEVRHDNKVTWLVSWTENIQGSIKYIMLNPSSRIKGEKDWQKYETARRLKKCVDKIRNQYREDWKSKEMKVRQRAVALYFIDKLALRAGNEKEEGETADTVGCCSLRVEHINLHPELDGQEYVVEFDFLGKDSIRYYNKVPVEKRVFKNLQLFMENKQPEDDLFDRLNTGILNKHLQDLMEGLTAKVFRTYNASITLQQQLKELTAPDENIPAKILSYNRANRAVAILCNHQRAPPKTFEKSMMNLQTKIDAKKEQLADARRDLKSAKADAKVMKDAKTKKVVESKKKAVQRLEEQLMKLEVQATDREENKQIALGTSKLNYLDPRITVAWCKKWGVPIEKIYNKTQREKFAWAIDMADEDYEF
UniProt P83916: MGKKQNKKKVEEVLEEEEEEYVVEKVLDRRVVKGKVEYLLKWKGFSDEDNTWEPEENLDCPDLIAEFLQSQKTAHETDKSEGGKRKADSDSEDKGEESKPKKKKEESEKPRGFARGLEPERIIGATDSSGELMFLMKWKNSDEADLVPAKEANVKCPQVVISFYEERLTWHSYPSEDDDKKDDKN
UniProt P18754: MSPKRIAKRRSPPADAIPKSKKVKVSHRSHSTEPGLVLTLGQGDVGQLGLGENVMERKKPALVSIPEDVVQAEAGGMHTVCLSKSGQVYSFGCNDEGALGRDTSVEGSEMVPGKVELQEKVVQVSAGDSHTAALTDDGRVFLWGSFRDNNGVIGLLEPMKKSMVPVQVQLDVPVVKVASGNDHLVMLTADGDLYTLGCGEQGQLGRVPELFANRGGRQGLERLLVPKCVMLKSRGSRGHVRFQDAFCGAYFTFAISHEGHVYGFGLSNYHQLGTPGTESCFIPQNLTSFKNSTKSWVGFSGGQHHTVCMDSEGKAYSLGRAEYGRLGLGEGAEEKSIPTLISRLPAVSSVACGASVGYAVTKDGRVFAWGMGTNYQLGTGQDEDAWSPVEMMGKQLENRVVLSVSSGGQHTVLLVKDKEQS
UniProt P17096: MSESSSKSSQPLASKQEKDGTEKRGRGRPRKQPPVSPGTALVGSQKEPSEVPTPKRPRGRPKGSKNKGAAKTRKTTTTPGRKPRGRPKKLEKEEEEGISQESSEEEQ
UniProt P07355: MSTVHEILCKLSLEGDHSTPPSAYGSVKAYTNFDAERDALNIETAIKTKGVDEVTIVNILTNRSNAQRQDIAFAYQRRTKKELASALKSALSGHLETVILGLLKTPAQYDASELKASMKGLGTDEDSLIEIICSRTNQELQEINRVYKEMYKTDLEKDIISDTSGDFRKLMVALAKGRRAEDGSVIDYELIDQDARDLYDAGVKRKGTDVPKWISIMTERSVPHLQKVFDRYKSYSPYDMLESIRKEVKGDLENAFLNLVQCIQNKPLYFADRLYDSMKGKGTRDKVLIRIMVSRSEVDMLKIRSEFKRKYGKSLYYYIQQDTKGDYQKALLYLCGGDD
UniProt Q7Z2W4: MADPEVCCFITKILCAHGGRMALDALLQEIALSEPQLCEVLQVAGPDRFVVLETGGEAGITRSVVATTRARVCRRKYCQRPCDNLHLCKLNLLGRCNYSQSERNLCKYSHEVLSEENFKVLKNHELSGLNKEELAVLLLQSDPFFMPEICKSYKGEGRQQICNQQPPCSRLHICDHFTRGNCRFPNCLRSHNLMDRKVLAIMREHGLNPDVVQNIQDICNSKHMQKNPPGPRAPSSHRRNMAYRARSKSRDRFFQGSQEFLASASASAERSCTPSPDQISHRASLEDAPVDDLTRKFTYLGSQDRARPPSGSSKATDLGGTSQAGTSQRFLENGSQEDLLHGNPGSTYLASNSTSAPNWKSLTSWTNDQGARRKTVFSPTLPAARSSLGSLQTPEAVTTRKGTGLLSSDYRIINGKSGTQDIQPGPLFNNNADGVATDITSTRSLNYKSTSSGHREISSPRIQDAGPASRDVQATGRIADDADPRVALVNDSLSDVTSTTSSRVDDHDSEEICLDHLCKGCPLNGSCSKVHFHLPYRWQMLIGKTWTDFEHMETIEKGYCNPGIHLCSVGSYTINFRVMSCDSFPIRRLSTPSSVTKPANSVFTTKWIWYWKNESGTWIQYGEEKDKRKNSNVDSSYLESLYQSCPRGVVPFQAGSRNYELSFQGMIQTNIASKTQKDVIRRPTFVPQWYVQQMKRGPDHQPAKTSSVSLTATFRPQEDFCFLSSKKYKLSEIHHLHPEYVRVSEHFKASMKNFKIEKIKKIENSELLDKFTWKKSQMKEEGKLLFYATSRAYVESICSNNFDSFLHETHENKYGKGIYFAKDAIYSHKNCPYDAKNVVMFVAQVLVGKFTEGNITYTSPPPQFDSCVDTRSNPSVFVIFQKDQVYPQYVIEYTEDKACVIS
UniProt P27694: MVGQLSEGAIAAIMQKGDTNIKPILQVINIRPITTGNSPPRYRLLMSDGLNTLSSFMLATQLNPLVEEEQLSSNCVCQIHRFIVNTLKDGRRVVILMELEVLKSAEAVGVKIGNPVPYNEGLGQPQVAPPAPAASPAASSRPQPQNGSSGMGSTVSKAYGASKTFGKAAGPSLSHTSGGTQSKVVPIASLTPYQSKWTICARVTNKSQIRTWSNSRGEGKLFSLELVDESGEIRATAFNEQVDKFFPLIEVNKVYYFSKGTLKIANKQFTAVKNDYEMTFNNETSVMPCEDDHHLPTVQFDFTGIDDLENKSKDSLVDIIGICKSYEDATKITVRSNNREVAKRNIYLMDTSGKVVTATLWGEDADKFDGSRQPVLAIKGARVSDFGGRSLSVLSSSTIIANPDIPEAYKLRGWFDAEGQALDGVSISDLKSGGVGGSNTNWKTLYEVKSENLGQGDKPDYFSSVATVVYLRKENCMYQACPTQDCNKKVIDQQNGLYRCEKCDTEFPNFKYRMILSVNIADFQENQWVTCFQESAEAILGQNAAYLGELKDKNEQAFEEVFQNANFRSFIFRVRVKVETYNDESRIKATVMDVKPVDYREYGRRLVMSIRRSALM
UniProt Q86UQ0: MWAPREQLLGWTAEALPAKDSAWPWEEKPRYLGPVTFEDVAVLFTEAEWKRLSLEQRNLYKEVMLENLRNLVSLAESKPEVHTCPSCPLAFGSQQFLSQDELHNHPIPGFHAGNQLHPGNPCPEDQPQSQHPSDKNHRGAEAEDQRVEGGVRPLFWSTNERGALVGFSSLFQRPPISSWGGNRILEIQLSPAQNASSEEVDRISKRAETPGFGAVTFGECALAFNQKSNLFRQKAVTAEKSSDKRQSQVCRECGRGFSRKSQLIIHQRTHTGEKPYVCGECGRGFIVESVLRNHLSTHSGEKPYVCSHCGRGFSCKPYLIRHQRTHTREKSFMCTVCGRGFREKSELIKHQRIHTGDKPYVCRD
UniProt Q96KG7, residues 26-1140: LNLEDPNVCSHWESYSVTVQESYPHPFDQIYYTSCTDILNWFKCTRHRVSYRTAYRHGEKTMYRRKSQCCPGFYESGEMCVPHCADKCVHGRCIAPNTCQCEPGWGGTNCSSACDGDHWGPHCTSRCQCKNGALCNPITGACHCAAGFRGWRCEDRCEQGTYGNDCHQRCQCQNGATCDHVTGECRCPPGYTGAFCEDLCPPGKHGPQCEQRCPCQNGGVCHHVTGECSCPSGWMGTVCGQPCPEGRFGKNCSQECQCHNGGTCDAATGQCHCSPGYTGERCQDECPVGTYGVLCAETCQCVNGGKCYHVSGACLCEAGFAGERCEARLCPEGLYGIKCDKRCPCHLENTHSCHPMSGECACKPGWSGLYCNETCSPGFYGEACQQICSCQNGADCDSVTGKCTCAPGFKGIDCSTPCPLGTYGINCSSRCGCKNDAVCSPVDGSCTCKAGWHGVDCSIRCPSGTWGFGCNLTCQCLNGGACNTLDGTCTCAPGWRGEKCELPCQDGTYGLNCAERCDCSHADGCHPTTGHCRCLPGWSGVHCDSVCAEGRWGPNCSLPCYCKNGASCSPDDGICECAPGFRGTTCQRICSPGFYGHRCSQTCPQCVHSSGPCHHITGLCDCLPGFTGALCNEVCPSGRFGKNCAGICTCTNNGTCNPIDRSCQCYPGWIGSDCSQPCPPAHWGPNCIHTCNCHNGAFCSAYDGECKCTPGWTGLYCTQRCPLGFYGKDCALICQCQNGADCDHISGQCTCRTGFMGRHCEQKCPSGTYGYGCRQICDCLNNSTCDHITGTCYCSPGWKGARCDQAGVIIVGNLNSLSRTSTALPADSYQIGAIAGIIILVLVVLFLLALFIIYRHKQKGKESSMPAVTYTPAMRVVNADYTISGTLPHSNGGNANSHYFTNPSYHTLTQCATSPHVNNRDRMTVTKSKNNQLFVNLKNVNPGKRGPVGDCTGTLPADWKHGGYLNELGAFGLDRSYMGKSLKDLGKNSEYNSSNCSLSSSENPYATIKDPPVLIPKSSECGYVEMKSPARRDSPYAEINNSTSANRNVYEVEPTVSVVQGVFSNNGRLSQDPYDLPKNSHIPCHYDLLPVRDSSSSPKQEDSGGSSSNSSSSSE
UniProt Q6ZRK6: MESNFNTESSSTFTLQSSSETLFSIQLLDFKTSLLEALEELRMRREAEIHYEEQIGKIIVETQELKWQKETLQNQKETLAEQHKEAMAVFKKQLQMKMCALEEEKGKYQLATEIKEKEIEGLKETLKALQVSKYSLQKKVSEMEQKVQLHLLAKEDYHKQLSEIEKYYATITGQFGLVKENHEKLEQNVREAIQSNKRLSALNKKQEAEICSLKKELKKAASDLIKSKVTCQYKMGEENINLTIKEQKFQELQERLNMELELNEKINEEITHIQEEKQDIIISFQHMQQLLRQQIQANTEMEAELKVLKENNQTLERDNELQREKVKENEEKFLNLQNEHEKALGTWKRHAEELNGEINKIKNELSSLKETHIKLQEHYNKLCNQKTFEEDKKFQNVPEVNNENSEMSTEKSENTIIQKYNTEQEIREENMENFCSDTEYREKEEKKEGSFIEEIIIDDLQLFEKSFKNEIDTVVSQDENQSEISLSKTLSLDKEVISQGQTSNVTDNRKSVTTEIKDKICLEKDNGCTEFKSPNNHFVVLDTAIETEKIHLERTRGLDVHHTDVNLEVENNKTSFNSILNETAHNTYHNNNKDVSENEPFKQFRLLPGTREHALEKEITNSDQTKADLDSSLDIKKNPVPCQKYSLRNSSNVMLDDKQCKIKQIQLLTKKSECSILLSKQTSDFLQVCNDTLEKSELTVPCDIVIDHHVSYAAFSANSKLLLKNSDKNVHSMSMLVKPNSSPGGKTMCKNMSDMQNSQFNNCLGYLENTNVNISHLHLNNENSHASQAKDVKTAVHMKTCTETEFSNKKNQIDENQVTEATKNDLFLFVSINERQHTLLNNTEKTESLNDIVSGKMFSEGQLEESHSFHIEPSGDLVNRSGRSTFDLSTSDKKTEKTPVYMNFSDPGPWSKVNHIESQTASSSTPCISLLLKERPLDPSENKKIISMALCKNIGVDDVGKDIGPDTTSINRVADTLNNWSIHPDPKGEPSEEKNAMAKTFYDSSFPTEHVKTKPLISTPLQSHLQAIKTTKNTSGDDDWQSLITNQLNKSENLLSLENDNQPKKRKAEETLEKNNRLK
UniProt Q13185: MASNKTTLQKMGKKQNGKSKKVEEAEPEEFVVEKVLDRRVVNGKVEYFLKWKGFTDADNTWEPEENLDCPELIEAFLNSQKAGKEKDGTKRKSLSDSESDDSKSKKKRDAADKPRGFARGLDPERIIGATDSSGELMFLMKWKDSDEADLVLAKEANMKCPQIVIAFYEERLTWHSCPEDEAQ
UniProt P04792: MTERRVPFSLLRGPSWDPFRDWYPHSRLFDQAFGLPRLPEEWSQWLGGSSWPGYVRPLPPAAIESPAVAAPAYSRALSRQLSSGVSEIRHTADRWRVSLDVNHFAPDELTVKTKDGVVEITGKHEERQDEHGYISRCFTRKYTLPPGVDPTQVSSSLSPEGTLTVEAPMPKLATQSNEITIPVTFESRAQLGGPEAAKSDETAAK
UniProt P06748: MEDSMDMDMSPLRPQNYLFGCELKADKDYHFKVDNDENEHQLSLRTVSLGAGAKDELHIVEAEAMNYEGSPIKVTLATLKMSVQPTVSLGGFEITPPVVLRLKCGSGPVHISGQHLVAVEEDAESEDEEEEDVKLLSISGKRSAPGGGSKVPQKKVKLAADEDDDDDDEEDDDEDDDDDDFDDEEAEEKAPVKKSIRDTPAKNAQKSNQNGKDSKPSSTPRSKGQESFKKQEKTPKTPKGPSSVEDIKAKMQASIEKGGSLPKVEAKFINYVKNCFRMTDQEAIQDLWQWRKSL


Biological target: T1, Heme oxygenase 1 (recombinant FLAGHO-1) (human)
Test: affinity purification with mass spectrometry; PC3 cells transiently transfected with FLAGHO-1 or empty FLAG vector and treated with H2O2 (200 uM); extract in 20 mM Tris, 150 mM NaCl, 5 mM MgCl2, 0.5% NP40, pH 7.5; Flag magnetic beads 2 h at 4 °C; eluted with 3XFLAG peptide; trypsin digest, LC-ESI MS/MS; only proteins differential against the empty FLAG vector were kept

Molecule | binding
DNA topoisomerase 1 (from UniProt P11387 1-765) | binds
Gelsolin (from UniProt P06396 28-782) | binds
Translation elongation factor 1-alpha (from UniProt P68104 1-462) | binds
High mobility group AT-hook 1 (human (endogenous in PC3)) | binds
Chromobox homolog 1 (from UniProt P83916 1-185) | binds
Regulator of chromosome condensation (from UniProt P18754 1-421) | binds
Cycle-like factor CLIF (from UniProt Q8WYA1-5) | binds
Muskelin 1 (from UniProt Q9UL63-1 1-735) | binds
Palmdelphin, isoform CRA_a (from UniProt Q9NP74-2) | binds
Ribosomal protein SA pseudogene 9 (human (endogenous in PC3)) | binds
Mitochondrial import inner membrane translocase subunit (human (endogenous in PC3)) | binds
Kinesin-like protein KIF23 (from UniProt Q02241-2) | binds
Potassium-transporting ATPase alpha chain 1 (from UniProt P20648 1-1035) | binds
High mobility group protein HMG-I/HMG-Y isoform a (from UniProt P17096 1-107) | binds
Tripartite motif-containing 28 (from UniProt Q13263 1-835) | binds
Anexin 2 (from UniProt P07355 1-339) | binds
Cardiomyopathy-associated protein 5 (from UniProt Q8N3K9 1-4069) | binds
Zinc-finger CCCH-type, antiviral 1 (from UniProt Q7Z2W4 1-902) | binds
Damage-specific DNA-binding protein 1, 127kDa (from UniProt Q16531 1-1140) | binds

Molecule | binding
Programmed cell death 5 short isoform (human (endogenous in PC3)) | binds
Replication protein A 70 kDa DNA-binding subunit (from UniProt P27694 1-616) | binds
Zinc-finger protein 589 (from UniProt Q86UQ0 1-364) | binds
Translation initiation factor eIF3 p40 subunit (from UniProt O15372 1-352) | binds
Sequestosome 1 (from UniProt Q13501 1-440) | binds
Signal-induced proliferation-associated 1-like protein 1 (from UniProt O43166 1-1804) | binds
Multiple epidermal growth factor-like domains protein 10 (from UniProt Q96KG7-1 26-1140) | binds
Coiled-coil domain-containing protein 73 (from UniProt Q6ZRK6 1-1079) | binds
RNA polymerase II transcription factor SIII subunit A3-like-2 (human (endogenous in PC3)) | binds
Chromobox homolog 3 (from UniProt Q13185 1-183) | binds
Heat shock 27 kDa protein (from UniProt P04792 1-205) | binds
5′-Nucleotidase, cytosolic II (from UniProt P49902-1 1-561) | binds
Nucleophosmin 1 (from UniProt P06748 1-294) | binds
KH-type splicing regulatory protein (protein, UniProt Q92945 1-711) MSDYSTGGPPPGPPPPAGGGGGAGGAGGGPPPGPPGAGDRGGGGPGGGGPGGGSAGGPSQPPGGGGPGIRKDAFADAVQRARQIAAKIGGDAATTVNNSTPDFGFGGQKRQLEDGDQPESKKLASQGDSISSQLGPIHPPPRTSMTEEYRVPDGMVGLIIGRGGEQINKIQQDSGCKVQISPDSGGLPERSVSLTGAPESVQKAKMMLDDIVSRGRGGPPGQFHDNANGGQNGTVQEIMIPAGKAGLVIGKGGETIKQLQERAGVKMILIQDGSQNTNVDKPLRIIGDPYKVQQACEMVMDILRERDQGGFGDRNEYGSRIGGGIDVPVPRHSVGVVIGRSGEMIKKIQNDAGVRIQFKQDDGTGPEKIAHIMGPPDRCEHAARIINDLLQSLRSGPPGPPGGPGMPPGGRGRGRGQGNWGPPGGEMTFSIPTHKCGLVIGRGGENVKAINQQTGAFVEISRQLPPNGDPNFKLFIIRGSPQQIDHAKQLIEEKIEGPLCPVGPGPGGPGPAGPMGPFNPGPFNQGPPGAPPHAGGPPPHQYPPQGWGNTYPQWQPPAPHDPSKAAAAAADPNAAWAAYYSHYYQQPPGPVPGPAPAPAAPPAQGEPPQPPPTGQSDYTKAWEEYYKKIGQQPQQPGAPPQQDYTKAWEEYYKKQAQVATGGGPGAPPGSQPDYSAAWAEYYRQQAAYYGQTPGPGGPQPPPTQQGQQQAQ | binds
FtsJ3 protein (protein, UniProt Q8IY81 1-847) MGKKGKVGKSRRDKFYHLAKETGYRSRSAFKLIQLNRRFQFLQKARALLDLCAAPGGWLQVAAKFMPVSSLIVGVDLVPIKPLPNVVTLQQDITTERCRQALRKELKTWKVDVVLNDGAPNVGASWVHDAYSQAHLTLMALRLACDFLARGGSFITKVFRSRDYQPLLWIFQQLFRRVQATKPQASRHESAEIFVVCQGFLAPDKVDSKFFDPKFAFKEVEVQAKTVTELVTKKKPKAEGYAEGDLTLYHRTSVTDFLRAANPVDFLSKASEIMVDDEELAQHPATTEDIRVCCQDIRVLGRKELRSLLNWRTKLRRYVAKKLKEQAKALDISLSSGEEDEGDEEDSTAGTTKQPSKEEEEEEEEEQLNQTLAEMKAQEVAELKRKKKKLLREQRKQRERVELKMDLPGVSIADEGETGMFSLSTIRGHQLLEEVTQGDMSAADTFLSDLPRDDIYVSDVEDDGDDTSLDSDLDPEELAGVRGHQGLRDQKRMRLTEVQDDKEEEEEENPLLVPLEEKAVLQEEQANLWFSKGSFAGIEDDADEALEISQAQLLFENRRKGRQQQQKQQLPQTPPSCLKTEIMSPLYQDEAPKGTEASSGTEAATGLEGEEKDGISDSDSSTSSEEEESWEPLRGKKRSRGPKSDDDGFEIVPIEDPAKHRILDPEGLALGAVIASSKKAKRDLIDNSFNRYTFNEDEGELPEWFVQEEKQHRIRQLPVGKKEVEHYRKRWREINARPIKKVAEAKARKKRRMLKRLEQTRKKAEAVVNTVDISEREKVAQLRSLYKKAGLGKEKRHVTYVVAKKGVGRKVRRPAGVRGHFKVVDSRMKKDQRAQQRKEQKKKHKRK | binds
Matrin 3 (protein, UniProt P43243 1-847) MSKSFQQSSLSRDSQGHGRDLSAAGIGLLAAATQSLSMPASLGRMNQGTARLASLMNLGMSSSLNQQGAHSALSSASTSSHNLQSIFNIGSRGPLPLSSQHRGDADQASNILASFGLSARDLDELSRYPEDKITPENLPQILLQLKRRRTEEGPTLSYGRDGRSATREPPYRVPRDDWEEKRHFRRDSFDDRGPSLNPVLDYDHGSRSQESGYYDRMDYEDDRLRDGERCRDDSFFGETSHNYHKFDSEYERMGRGPGPLQERSLFEKKRGAPPSSNIEDFHGLLPKGYPHLCSICDLPVHSNKEWSQHINGASHSRRCQLLLEIYPEWNPDNDTGHTMGDPFMLQQSTNPAPGILGPPPPSFHLGGPAVGPRGNLGAGNGNLQGPRHMQKGRVETSRVVHIMDFQRGKNLRYQLLQLVEPFGVISNHLILNKINEAFIEMATTEDAQAAVDYYTTTPALVFGKPVRVHLSQKYKRIKKPEGKPDQKFDQKQELGRVIHLSNLPHSGYSDSAVLKLAEPYGKIKNYILMRMKSQAFIEMETREDAMAMVDHCLKKALWFQGRCVKVDLSEKYKKLVLRIPNRGIDLLKKDKSRKRSYSPDGKESPSDKKSKTDGSQKTESSTEGKEQEEKSGEDGEKDTKDDQTEQEPNMLLESEDELLVDEEEAAALLESGSSVGDETDLANLGDVASDGKKEPSDKAVKKDGSASAAAKKKLKKVDKIEELDQENEAALENGIKNEENTEPGAESSENADDPNKDTSENADGQSDENKDDYTIPDEYRIGPYQPNVPVGIDYVIPKTGFYCKLCSLFYTNEEVAKNTHCSSLPHYQKLKKFLNKLAEERRQKKET | binds
Alpha-2-HS-glycoprotein (protein, UniProt P02765 19-367) APHGPGLIYRQPNCDDPETEEAALVAIDYINQNLPWGYKHTLNQIDEVKVWPQQPSGELFEIEIDTLETTCHVLDPTPVARCSVRQLKEHAVEGDCDFQLLKLDGKFSVVYAKCDSSPDSAEDVRKVCQDCPLLAPLNDTRVVHAAKAALAAFNAQNNGSNFQLEEISRAQLVPLPPSTYVEFTVSGTDCVAKEATEAAKCNLLAEKQYGFCKATLSEKLGGAEVAVTCMVFQTQPVSSQPQPEGANEAVPTPVVDPDAPPSPPLGAPGLPPAGSPPDSHVLLAAPPGHQLHRAHYDLRHTFMGVVSLGSPSGEVSHPRKTRTVVQPSVGAAAGPVVPPCPGRIRHFKV | binds
Lasp-1 (protein, UniProt Q14847-1 1-261) MNPNCARCGKIVYPTEKVNCLDKFWHKACFHCETCKMTLNMKNYKGYEKKPYCNAHYPKQSFTMVADTPENLRLKQQSELQSQVRYKEEFEKNKGKGFSVVADTPELQRIKKTQDQISNIKYHEEFEKSRMGPSGGEGMEPERRDSQDGSSYRRPLEQQQPHHIPTSAPVYQQPQQQPVAQSYGGYKEPAAPVSIQRSAPGGGGKRYRAVYDYSAADEDEVSFQDGDTIVNVQQIDDGWMYGTVERTGDTGMLPANYVEAI | binds
Junctional sarcoplasmic reticulum protein 1 (protein, UniProt Q96MG2 1-331) MSMTTRAWEELDGGLGSCQALEDHSALAETQEDRASATPRLADSGSVPHDSQVAEGPSVDTRPKKMEKEPAARGTPGTGKERLKAGASPRSVPARKKAQTAPPLQPPPPPPALSEELPWGDLSLNKCLVLASLVALLGSAFQLCRDAVPGEAALQARVPEPWVPPSSAPREPSSPLPKFEAQAPPSAPPAPRAEAEVRPKIPGSREAAENDEEEPGEATGEAVREDRVTLADRGPKERPRREGKPRKEKPRKEERPKKERPRKEERPRAAREPREALPQRWESREGGHRPWARDSRDAEPRKKQAWVSPRRPDEEQRPGSRQKLRAGKGRD | binds
